# Data from the supplement of paper PMC7238544.
# Counter-ions that a name gives are not always drawn. ± gives the standard deviation of the averaged measurements. The list shows a part of the results. The data scatter; read single values as rough.
# Test system: hAMSC donor 1
# Experiment: Hoechst total cell count ratio vs vehicle control; hAMSC are human adipose-derived mesenchymal stem cells given an EGFP-luciferase plasmid by lipofection; higher = more cells (less toxicity)
# Conditions: priming compound concentration 0.2 µM
row,Compound,Hoechst total cell count ratio
1,N[C@@H]1CONC1=O [D-Cycloserine],1.39 ± 0.14
2,CC(C)NCC(O)c1ccc(O)c(O)c1 (stereo unspecified) [Isoproterenol hydrochloride],1.33 ± 0.022
3,NC(=O)c1cccnc1 [Nicotinamide],1.29 ± 0.3
4,CC(=O)Oc1ccccc1C(=O)Nc1ncc([N+](=O)[O-])s1 [Nitazoxanide],1.38 ± 0.14
5,Cc1nc2ccccn2c(=O)c1CCN1CCC(C(=O)c2ccc(F)cc2)CC1 [Pirenperone],1.22 ± 0.32
6,CC(C)(C(=O)O)c1ccc(C(O)CCCN2CCC(C(O)(c3ccccc3)c3ccccc3)CC2)cc1 (stereo unspecified) [Fexofenadine hydrochloride],1.53 ± 0.17
7,CC1CNc2c(cccc2S(=O)(=O)N[C@@H](CCCNC(=N)N)C(=O)N2CC[C@@H](C)C[C@@H]2C(=O)O)C1 (stereo partly specified) [Argatroban],1.18 ± 0.078
8,O=c1[nH]cnc2c1ncn2[C@H]1CC[C@@H](CO)O1 [Didanosine],1.2 ± 0.17
9,CC(C)NCC(O)COc1ccc(COCCOC(C)C)cc1 (stereo unspecified) [Bisoprolol fumarate],1.24 ± 0.17
10,CCN1CCN(c2cc3c(cc2F)c(=O)c(C(=O)O)cn3C2CC2)CC1 [Enrofloxacin],1.19 ± 0.12
11,O=C1N(c2ccccc2)c2ccccc2C1(Cc1ccncc1)Cc1ccncc1 [Linopirdine dihydrochloride],1.33 ± 0.12
12,CN(C)CCC=C1c2ccccc2COc2ccccc21 [Doxepin hydrochloride],1.46 ± 0.034
13,C[C@@H]1CN(CCCn2c3ccccc3c3ccccc32)C[C@H](C)N1 [Rimcazole dihydrochloride],1.23 ± 0.22
14,Nc1nc2ccc(OC(F)(F)F)cc2s1 [Riluzole hydrochloride],1.12 ± 0.075
15,NC(N)=Nc1nc(CSCC/C(N)=N/S(N)(=O)=O)cs1 [Famotidine],1.04 ± 0.12
16,CN(C)CCN(Cc1ccccc1)c1ccccn1 [Tripelennamine hydrochloride],1.23 ± 0.2

# From compound 2 up to 3, copied from above:
row,Compound,Hoechst total cell count ratio
2,CC(C)NCC(O)c1ccc(O)c(O)c1 (stereo unspecified) [Isoproterenol hydrochloride],1.33 ± 0.022
3,NC(=O)c1cccnc1 [Nicotinamide],1.29 ± 0.3
